Measurements taken from the supplement of paper PMC11732987, “Enantioselective OTUD7B fragment discovery through chemoproteomics screening and high-throughput optimisation” (Communications Chemistry, 2025).
Some of the results follow. The data scatter; read single values as rough.

Protein sequences, listed by entry. Tags and fused reporters are not part of them. Lines headed by an entry give the natural chain unless they say otherwise; changes in a name come on top. Residues count along the entry.
UniProt O94973, whole entry, looked up: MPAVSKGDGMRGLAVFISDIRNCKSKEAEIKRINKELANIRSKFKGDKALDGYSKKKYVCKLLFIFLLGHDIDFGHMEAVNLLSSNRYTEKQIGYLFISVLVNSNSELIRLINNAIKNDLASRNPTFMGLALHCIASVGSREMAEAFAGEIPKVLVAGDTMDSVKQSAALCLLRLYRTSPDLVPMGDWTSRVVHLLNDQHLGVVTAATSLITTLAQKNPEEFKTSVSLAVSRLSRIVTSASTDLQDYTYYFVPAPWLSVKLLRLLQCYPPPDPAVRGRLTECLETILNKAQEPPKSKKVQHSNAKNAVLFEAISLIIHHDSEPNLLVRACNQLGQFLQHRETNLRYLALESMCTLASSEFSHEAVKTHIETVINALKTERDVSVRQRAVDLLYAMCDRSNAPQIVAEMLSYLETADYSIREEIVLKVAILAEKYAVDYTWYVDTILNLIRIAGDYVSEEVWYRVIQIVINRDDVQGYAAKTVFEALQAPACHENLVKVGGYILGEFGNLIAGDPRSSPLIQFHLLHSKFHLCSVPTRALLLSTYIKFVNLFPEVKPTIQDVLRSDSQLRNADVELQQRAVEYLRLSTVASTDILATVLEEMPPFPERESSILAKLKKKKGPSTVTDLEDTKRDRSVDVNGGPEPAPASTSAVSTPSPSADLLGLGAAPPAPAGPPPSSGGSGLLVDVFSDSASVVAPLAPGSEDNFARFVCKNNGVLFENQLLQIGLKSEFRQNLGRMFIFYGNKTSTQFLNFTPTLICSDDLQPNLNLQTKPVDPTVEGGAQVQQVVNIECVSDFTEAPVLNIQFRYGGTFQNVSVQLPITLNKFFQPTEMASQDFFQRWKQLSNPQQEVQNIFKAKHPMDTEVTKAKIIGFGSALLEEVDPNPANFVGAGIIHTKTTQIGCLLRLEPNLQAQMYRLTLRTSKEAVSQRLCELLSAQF
UniProt Q99856: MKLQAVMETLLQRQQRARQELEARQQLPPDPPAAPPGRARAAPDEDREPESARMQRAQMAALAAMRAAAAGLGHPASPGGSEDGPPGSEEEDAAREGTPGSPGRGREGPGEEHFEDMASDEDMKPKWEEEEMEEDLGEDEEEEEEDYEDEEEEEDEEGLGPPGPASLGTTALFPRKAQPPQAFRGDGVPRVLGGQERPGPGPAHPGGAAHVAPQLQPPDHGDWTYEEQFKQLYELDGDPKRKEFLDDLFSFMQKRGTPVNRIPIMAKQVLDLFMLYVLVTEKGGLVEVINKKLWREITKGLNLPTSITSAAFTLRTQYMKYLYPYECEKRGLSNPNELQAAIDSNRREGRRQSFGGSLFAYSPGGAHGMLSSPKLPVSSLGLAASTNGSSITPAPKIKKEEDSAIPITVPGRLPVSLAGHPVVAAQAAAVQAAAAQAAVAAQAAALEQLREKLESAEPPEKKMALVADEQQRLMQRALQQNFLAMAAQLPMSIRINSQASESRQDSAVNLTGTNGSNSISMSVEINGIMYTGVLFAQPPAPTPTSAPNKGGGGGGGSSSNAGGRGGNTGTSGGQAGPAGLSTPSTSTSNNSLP
UniProt Q9UBZ4: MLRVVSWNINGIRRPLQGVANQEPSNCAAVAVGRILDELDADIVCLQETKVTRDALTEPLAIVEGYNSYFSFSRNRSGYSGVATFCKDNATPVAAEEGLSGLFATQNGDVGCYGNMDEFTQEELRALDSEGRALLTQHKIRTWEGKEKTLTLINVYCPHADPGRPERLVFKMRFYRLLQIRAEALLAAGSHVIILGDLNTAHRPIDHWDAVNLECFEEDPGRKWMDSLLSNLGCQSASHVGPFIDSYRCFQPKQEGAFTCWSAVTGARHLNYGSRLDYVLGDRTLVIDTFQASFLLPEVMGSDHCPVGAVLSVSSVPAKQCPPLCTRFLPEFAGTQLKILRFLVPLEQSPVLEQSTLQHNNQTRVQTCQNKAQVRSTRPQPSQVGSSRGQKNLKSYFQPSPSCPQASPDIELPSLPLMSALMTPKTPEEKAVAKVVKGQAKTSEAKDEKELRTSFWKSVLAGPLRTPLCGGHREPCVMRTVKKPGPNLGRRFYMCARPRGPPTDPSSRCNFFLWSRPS
UniProt Q9Y4X5: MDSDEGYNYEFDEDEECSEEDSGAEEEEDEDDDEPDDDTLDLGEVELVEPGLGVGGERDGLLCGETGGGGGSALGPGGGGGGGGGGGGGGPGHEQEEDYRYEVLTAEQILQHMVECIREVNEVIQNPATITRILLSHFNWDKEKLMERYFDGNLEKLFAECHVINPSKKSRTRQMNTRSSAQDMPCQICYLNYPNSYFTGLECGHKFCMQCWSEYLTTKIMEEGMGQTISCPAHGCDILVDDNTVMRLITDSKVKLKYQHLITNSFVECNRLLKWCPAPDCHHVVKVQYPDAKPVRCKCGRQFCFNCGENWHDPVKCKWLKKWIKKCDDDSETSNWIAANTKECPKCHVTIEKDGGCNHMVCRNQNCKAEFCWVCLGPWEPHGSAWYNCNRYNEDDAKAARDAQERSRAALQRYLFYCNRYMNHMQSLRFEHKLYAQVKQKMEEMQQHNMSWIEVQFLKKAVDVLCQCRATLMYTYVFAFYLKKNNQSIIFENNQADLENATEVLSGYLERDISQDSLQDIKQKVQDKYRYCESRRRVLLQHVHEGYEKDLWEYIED
UniProt Q63HQ0, 173-193: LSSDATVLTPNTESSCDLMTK
UniProt Q8N264: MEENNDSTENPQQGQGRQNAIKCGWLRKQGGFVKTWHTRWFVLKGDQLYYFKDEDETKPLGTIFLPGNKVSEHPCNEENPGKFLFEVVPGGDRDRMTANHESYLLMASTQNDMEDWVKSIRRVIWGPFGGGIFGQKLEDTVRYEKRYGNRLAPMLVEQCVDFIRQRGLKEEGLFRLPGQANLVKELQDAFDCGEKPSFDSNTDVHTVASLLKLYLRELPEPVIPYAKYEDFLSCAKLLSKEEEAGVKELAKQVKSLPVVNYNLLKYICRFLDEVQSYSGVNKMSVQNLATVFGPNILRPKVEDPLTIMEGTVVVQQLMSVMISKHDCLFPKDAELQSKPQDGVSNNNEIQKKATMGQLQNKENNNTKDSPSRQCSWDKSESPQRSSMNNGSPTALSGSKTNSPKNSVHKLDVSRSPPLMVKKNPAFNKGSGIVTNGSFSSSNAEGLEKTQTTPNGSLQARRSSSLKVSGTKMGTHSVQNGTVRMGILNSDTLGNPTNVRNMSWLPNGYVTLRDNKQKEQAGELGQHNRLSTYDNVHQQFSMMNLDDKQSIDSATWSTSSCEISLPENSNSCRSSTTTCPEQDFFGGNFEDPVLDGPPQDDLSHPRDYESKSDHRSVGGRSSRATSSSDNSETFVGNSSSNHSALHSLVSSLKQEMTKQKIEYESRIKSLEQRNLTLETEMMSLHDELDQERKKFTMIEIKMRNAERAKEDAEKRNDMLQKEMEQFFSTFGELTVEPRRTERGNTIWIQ
UniProt Q92688: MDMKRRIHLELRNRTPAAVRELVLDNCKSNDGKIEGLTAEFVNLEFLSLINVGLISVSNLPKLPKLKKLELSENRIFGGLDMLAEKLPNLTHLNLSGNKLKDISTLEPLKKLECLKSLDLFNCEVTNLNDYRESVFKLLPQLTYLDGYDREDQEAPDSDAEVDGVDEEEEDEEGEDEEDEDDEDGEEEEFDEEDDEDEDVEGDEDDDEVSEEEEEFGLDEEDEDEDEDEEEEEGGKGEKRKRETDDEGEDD
UniProt Q92747, whole entry, looked up: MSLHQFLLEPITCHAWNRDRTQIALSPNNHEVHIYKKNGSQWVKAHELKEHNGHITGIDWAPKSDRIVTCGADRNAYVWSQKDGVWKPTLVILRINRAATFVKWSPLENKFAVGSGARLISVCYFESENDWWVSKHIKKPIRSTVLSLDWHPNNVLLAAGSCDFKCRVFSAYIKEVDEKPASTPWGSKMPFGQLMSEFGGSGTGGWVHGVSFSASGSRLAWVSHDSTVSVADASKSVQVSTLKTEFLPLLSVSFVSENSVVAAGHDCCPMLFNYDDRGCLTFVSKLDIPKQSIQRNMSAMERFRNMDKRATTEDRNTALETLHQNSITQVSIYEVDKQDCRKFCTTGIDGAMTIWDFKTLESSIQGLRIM
UniProt Q99767: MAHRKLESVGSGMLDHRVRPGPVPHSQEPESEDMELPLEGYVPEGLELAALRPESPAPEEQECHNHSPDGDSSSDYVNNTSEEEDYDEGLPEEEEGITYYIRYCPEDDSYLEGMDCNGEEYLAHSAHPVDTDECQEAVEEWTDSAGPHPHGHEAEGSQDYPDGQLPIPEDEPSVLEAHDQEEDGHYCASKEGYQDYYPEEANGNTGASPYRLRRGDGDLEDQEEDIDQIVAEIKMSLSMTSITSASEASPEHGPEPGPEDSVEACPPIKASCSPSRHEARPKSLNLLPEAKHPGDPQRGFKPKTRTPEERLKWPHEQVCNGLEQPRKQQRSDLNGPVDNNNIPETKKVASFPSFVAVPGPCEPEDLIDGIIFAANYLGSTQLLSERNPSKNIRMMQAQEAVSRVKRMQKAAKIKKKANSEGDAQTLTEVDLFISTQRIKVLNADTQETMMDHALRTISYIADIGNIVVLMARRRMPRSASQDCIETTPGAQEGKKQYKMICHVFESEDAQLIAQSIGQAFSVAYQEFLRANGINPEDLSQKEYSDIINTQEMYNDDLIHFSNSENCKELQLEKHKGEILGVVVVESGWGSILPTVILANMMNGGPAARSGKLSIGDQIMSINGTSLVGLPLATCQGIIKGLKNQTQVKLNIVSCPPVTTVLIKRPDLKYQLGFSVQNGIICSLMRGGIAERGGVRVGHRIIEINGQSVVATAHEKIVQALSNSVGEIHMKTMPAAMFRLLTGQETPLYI
UniProt Q68CP9, 1355-1374: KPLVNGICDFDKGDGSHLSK

Columns and labels:
[1] = compound: ClCC(=O)N[C@@H]1CCCc2ccccc12; test: log2 mean competition ratio of IA-DTB cysteine labelling (DMSO/compound) (log2 ratio); higher = stronger cysteine engagement by compound; settings: treatment time: 4 h, cell line lysate: HEK293T
Method: (§1)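 IA-DTB competitive cysteine chemoproteomics in HEK293T RIPA lysate. Lysates were treated with compound 29 or 30 at 50 or 200 µM for 4 h, then IA-DTB (500 µM, 1 h), trypsin-digested, NeutrAvidin-enriched and analysed by diaPASEF. Competition ratio = intensity DMSO / intensity compound (n=4 treated, n=64 DMSO); binding: mean log2 CR ≥ 1 and p ≤ 0.05 plus QC filters. Target is the cysteine site.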

[2] = compound: ClCC(=O)N[C@H]1CCCc2ccccc12; test: as above; settings: treatment time: 4 h, cell line lysate: HEK293T
Method: as §1

Row | Target | log2 mean competition ratio ([1]; 50 µM) | log2 mean competition ratio ([1]; 200 µM) | log2 mean competition ratio ([2]; 50 µM) | log2 mean competition ratio ([2]; 200 µM)
1 | AP2A2 C396 (UniProt O94973) | -0.0751 | -0.248 | -0.226 | 0.0111
2 | ARHGEF39 C5 | 0.0224 | -0.0717 | -0.319 | 0.428
3 | ARID3A C327 (UniProt Q99856) | 0.229 | -0.232 | 0.157 | -0.187
4 | ANKRD11 C2359 (UniProt Q6UB99) | 0.0313 | -0.472 | 0.217 | 0.0282
5 | APEX2 C368 (UniProt Q9UBZ4) | 0.0881 | 0.35 | 0.0457 | 0.154
6 | ARFGEF3 C377 | -0.105 | 0.322 | 0.195 | -0.115
7 | ARIH1 C161 (UniProt Q9Y4X5) | 0.35 | -0.0981 | -0.129 | -0.331
8 | ASH1L C227 | -0.0204 | 0.227 | -0.00373 | 0.145
9 | AP1AR C188 (UniProt Q63HQ0) | -0.479 | -0.005 | -0.183 | 0.14
10 | ARHGAP24 C75 (UniProt Q8N264) | -0.493 | 0.321 | -0.365 | -0.169
11 | ANP32B C27 (UniProt Q92688) | -0.326 | -0.133 | 0.262 | 0.117
12 | ARPC1A C279 (UniProt Q92747) | 0.474 | -0.235 | 0.491 | -0.261
13 | ARHGAP31 C572 | 0.117 | 0.169 | -0.35 | 0.206
14 | APBA2 C319 (UniProt Q99767) | 0.113 | 0.27 | -0.492 | 0.307
15 | ASCC3 C1874 (UniProt Q8N3C0) | 0.042 | -0.28 | -0.0292 | -0.378
16 | ARID2 C1362 (UniProt Q68CP9) | 0.267 | 0.121 | -0.319 | -0.0452
17 | ANXA2 C9 | -0.0731 | 0.0273 | -0.369 | 0.0771

Copied from the list:
log2 mean competition ratio ([1]; 200 µM), ARID2 C1362 (UniProt Q68CP9) is entered as 0.121
log2 mean competition ratio ([1]; 50 µM), ARHGAP24 C75 (UniProt Q8N264) is entered as -0.493
